Reference: the supplement of paper PMC4604168 (melanoma cell lines)
This is one part of the list. Many values rest on one well or one pass, so single values are uncertain.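 The apoptosis fraction was the count of cleaved-PARP antibody-stained nuclei relative to all DNA-stained nuclei, imaged in 1,536-well plates. Screening doses were set so most cells survived, and baseline and induced cleaved-PARP levels vary greatly across cell lines.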

Legend:
Assay in all cases: cleaved PARP positive nuclei fraction relative to DMSO control; melanoma cells; higher = more apoptosis
Details in all cases: library dose: low library concentration; 72 h
[1] = tested on: MZ2-MEL
[2] = tested on: MeWo
[3] = tested on: RPMI7951
[4] = tested on: RVH-421
[5] = tested on: SkMel28
[6] = tested on: SkMel30
[7] = tested on: SkMel5
[8] = tested on: UACC257
[9] = tested on: UACC62
[10] = tested on: WM115
[11] = tested on: WM1716
[12] = tested on: WM1745
[13] = tested on: WM3526
[14] = tested on: WM3619
[15] = tested on: WM451Lu

| SMILES | cleaved PARP positive nuclei fraction [1] [%] | cleaved PARP positive nuclei fraction [2] [%] | cleaved PARP positive nuclei fraction [3] [%] | cleaved PARP positive nuclei fraction [4] [%] | cleaved PARP positive nuclei fraction [5] [%] | cleaved PARP positive nuclei fraction [6] [%] | cleaved PARP positive nuclei fraction [7] [%] | cleaved PARP positive nuclei fraction [8] [%] | cleaved PARP positive nuclei fraction [9] [%] | cleaved PARP positive nuclei fraction [10] [%] | cleaved PARP positive nuclei fraction [11] [%] | cleaved PARP positive nuclei fraction [12] [%] | cleaved PARP positive nuclei fraction [13] [%] | cleaved PARP positive nuclei fraction [14] [%] | cleaved PARP positive nuclei fraction [15] [%] |
| --- | --- | --- | --- | --- | --- | --- | --- | --- | --- | --- | --- | --- | --- | --- | --- |
| Oc1cc(-c2nc(-c3ccccc3)[nH]c2-c2ccncc2)ccc1Cl + COc1cc(N2CCC(N3CCN(C)CC3)CC2)ccc1Nc1ncc(Cl)c(Nc2ccccc2S(=O)(=O)C(C)C)n1 [NVP-TAE684] (first compound 0.2 µM, partner dose 0.08 µM) | 99.2 | 57.4 | 83.4 | 115 | 195 | 67.6 | 79.4 | 141 | 227 | 302 | 64.6 | 158 | 221 | 99.7 | 117 |
| NCC(=O)Nc1ccc(-n2nc(C(F)(F)F)cc2-c2ccc3c(ccc4ccccc43)c2)cc1 + CCN(CC)CCCCNc1ncc2cc(-c3cc(OC)cc(OC)c3)c(NC(=O)NC(C)(C)C)nc2n1 [PD173074] (first compound 1 µM, partner dose 0.1 µM) | 114 | 89.5 | 141 | 235 | 141 | 132 | 39.7 | 80.9 | 36.7 | 157 | 185 | 126 | 125 | 74 | 1830 |
| O=C(Nc1ccccc1)c1cc([N+](=O)[O-])ccc1Cl + O=c1cc(-c2cccc3c2Sc2ccccc2S3)oc(N2CCOCC2)c1 [KU55933] (first compound 2 µM, partner dose 1 µM) | 119 | 116 | 107 | 24.6 | 110 | 119 | 37 | 100 | 33 | 97.1 | 135 | 101 | 68.2 | 69.7 | 174 |
| CN(C)S(=O)(=O)c1ccc2c(c1)/C(=C/c1cc3c([nH]1)CCCC3)C(=O)N2 + Cc1cc([N+](=O)[O-])ccc1NS(=O)(=O)c1cc(Cl)ccc1Cl [FH535] (first compound 0.4 µM, partner dose 1 µM) | 125 | 224 | 45.8 | 88.4 | 191 | 88.5 | 50.7 | 89.7 | 265 | 273 | 79.8 | 114 | 61.7 | 70.5 | 129 |
| COc1cc2c(Oc3ccc4[nH]c(C)cc4c3F)ncnc2cc1OCCCN1CCCC1 [cediranib] + O=C1NC(=O)/C(=C/c2ccc(-c3ccc(F)cc3O)o2)S1 [AS252424] (first compound 0.4 µM, partner dose 1 µM) | 152 | 26.6 | 180 | 46.2 | 93.2 | 64.4 | 94.1 | 146 | 250 | 125 | 119 | 106 | 217 | 70.5 | 25.1 |
| COc1ccc2c(c1)CCC1C2CCC2(C)C(NCCCCCCN3C(=O)C=CC3=O)CCC12 (stereo not given) + Cn1cc(/C=C2\C(=O)Nc3cccnc32)c2ccccc21 [GW441756] (first compound 0.4 µM, partner dose 0.4 µM) | 147 | 153 | 119 | 64.1 | 89.2 | 47.1 | 176 | 119 | 200 | 219 | 42.2 | 115 | 55.5 | 89.5 | 107 |
| COc1ccc2c(c1)CCC1C2CCC2(C)C(NCCCCCCN3C(=O)C=CC3=O)CCC12 (stereo not given) + c1cc(-c2cnn3cc(-c4ccc(OCCN5CCCCC5)cc4)cnc23)ccn1 [Dorsomorphin] (first compound 0.4 µM, partner dose 0.4 µM) | 160 | 27.3 | 110 | 82.7 | 251 | 84.4 | 128 | 213 | 130 | 392 | 128 | 115 | 72.7 | 77.2 | 130 |
| COc1cc2ncnc(Nc3ccc(Oc4ccccc4)cc3)c2cc1OC + Cc1cc([N+](=O)[O-])ccc1NS(=O)(=O)c1cc(Cl)ccc1Cl [FH535] (first compound 2 µM, partner dose 1 µM) | 127 | 58.1 | 75.9 | 103 | 162 | 59.2 | 30.5 | 200 | 80.9 | 35.1 | 76 | 128 | 75.8 | 130 | 31.8 |
| O=C1NC(=O)/C(=C/c2ccc(-c3ccc(F)cc3O)o2)S1 + Cn1cc(/C=C2\C(=O)Nc3cccnc32)c2ccccc21 [GW441756] (first compound 1 µM, partner dose 0.4 µM) | 45.4 | 98.9 | 37.7 | 68.6 | 116 | 106 | 64.2 | 133 | 38.1 | 65.7 | 147 | 97.2 | 42.3 | 98.5 | 326 |
| NCC(=O)Nc1ccc(-n2nc(C(F)(F)F)cc2-c2ccc3c(ccc4ccccc43)c2)cc1 + O=C1NC(=O)/C(=C/c2ccc(-c3ccc(F)cc3O)o2)S1 [AS252424] (first compound 1 µM, partner dose 1 µM) | 46.8 | 93.6 | 86.6 | 120 | 196 | 124 | 33.4 | 110 | 46.6 | 67.1 | 130 | 91.5 | 68.9 | 76.5 | 191 |
| O=C(O)c1ccc(-c2c[nH]c3ncc(-c4ccccc4)cc23)cc1C1CCCC1 + COC(=O)c1sccc1S(=O)(=O)Nc1ccc(Nc2ccccc2)cc1OC [GSK0660] (first compound 0.16 µM, partner dose 1 µM) | 60 | 62.9 | 87.4 | 65 | 147 | 104 | 32.8 | 43.8 | 43.4 | 21.7 | 75.3 | 100 | 96.7 | 106 | 64.5 |
| O=C(O)c1ccc(-c2c[nH]c3ncc(-c4ccccc4)cc23)cc1C1CCCC1 + COc1cc(N2CCC(N3CCN(C)CC3)CC2)ccc1Nc1ncc(Cl)c(Nc2ccccc2S(=O)(=O)C(C)C)n1 [NVP-TAE684] (first compound 0.16 µM, partner dose 0.08 µM) | 131 | 84.5 | 101 | 70.4 | 138 | 29.7 | 34.5 | 108 | 191 | 53 | 172 | 241 | 57.2 | 92.9 | 37.2 |
| CCc1ccc(CCOc2ccc(CC3SC(=O)NC3=O)cc2)nc1 (stereo not given) [pioglitazone] + O=S(=O)(c1ccccc1)N(CC(F)(F)F)c1ccc(C(O)(C(F)(F)F)C(F)(F)F)cc1 [T0901317] (first compound 2 µM, partner dose 1.4 µM) | 118 | 53.5 | 43.4 | 27.8 | 255 | 57.4 | 38.2 | 265 | 49 | 100 | 198 | 121 | 157 | 158 | 96.9 |
| CCN(CC)CCCCNc1ncc2cc(-c3cc(OC)cc(OC)c3)c(NC(=O)NC(C)(C)C)nc2n1 + COc1ccc(COc2ccc(Cc3cnc(N)nc3N)cc2OC)cc1 [GW2580] (first compound 0.1 µM, partner dose 1 µM) | 103 | 146 | 78.9 | 67.3 | 40.6 | 44.1 | 26.4 | 116 | 116 | 225 | 117 | 104 | 31.7 | 203 | 121 |
| COc1ccc2c(c1)CCC1C2CCC2(C)C(NCCCCCCN3C(=O)C=CC3=O)CCC12 (stereo not given) + CC(C)CCN1c2nc(Nc3cc(F)c(O)c(F)c3)ncc2N(C)C(=O)C1C [BID1870] (first compound 0.4 µM, partner dose 0.2 µM) | 138 | 52.4 | 98.3 | 87.5 | 76.1 | 53.2 | 61.1 | 131 | 301 | 134 | 232 | 97.7 | 73.2 | 165 | 159 |
| O=C1NC(=O)/C(=C/c2ccc(-c3ccc(F)cc3O)o2)S1 + CC(C)CCN1c2nc(Nc3cc(F)c(O)c(F)c3)ncc2N(C)C(=O)C1C [BID1870] (first compound 1 µM, partner dose 0.2 µM) | 76.6 | 347 | 39.5 | 125 | 16.4 | 19 | 40.6 | 6.21 | 59.4 | 70.9 | 4.96 | 104 | 45.3 | 93 | 53.3 |
| CN(C)S(=O)(=O)c1ccc2c(c1)/C(=C/c1cc3c([nH]1)CCCC3)C(=O)N2 + O=c1cc(-c2cccc3c2Sc2ccccc2S3)oc(N2CCOCC2)c1 [KU55933] (first compound 0.4 µM, partner dose 1 µM) | 115 | 155 | 40.3 | 28.6 | 196 | 7.95 | 170 | 178 | 190 | 242 | 56.3 | 104 | 151 | 70.5 | 40.1 |
| CCc1ccc(CCOc2ccc(CC3SC(=O)NC3=O)cc2)nc1 (stereo not given) [pioglitazone] + COC(=O)c1sccc1S(=O)(=O)Nc1ccc(Nc2ccccc2)cc1OC [GSK0660] (first compound 2 µM, partner dose 1 µM) | 132 | 91.2 | 81.6 | 81.6 | 134 | 18.4 | 54.8 | 258 | 101 | 54.8 | 111 | 93.4 | 131 | 87.3 | 342 |
| COc1cc(N2CCC(N3CCN(C)CC3)CC2)ccc1Nc1ncc(Cl)c(Nc2ccccc2S(=O)(=O)C(C)C)n1 + CCCCCCCCCCCC1=C(O)C(=O)C=C(O)C1=O [Embelin] (first compound 0.08 µM, partner dose 1.2 µM) | 38.6 | 196 | 163 | 87.2 | 104 | 40.6 | 106 | 123 | 70.1 | 128 | 44.3 | 116 | 67.3 | 83.1 | 25.3 |

Looked up above:
CN(C)S(=O)(=O)c1ccc2c(c1)/C(=C/c1cc3c([nH]1)CCCC3)C(=O)N2 + O=c1cc(-c2cccc3c2Sc2ccccc2S3)oc(N2CCOCC2)c1 [KU55933] (first compound 0.4 µM, partner dose 1 µM) | cleaved PARP positive nuclei fraction [10] [%]: 242
CCc1ccc(CCOc2ccc(CC3SC(=O)NC3=O)cc2)nc1 (stereo not given) [pioglitazone] + COC(=O)c1sccc1S(=O)(=O)Nc1ccc(Nc2ccccc2)cc1OC [GSK0660] (first compound 2 µM, partner dose 1 µM) | cleaved PARP positive nuclei fraction [13] [%]: 131
